Data: PMC11144933
No constants are given. Whether binding was seen depends on the method and setting. Binding seen in cells or lysates may run through a third protein. Here binding means that the protein was enriched with, or labelled near, the bait; the list need not be complete.

By UniProt entry, the sequences of proteins in these tests, tags left out. Where a name states a change or a piece, a line headed by the entry shows the natural chain unless it says otherwise. Chains listed by the source or under a name are the forms on record and can include a tag or linker. Residues count along the entry.
UniProt Q61180: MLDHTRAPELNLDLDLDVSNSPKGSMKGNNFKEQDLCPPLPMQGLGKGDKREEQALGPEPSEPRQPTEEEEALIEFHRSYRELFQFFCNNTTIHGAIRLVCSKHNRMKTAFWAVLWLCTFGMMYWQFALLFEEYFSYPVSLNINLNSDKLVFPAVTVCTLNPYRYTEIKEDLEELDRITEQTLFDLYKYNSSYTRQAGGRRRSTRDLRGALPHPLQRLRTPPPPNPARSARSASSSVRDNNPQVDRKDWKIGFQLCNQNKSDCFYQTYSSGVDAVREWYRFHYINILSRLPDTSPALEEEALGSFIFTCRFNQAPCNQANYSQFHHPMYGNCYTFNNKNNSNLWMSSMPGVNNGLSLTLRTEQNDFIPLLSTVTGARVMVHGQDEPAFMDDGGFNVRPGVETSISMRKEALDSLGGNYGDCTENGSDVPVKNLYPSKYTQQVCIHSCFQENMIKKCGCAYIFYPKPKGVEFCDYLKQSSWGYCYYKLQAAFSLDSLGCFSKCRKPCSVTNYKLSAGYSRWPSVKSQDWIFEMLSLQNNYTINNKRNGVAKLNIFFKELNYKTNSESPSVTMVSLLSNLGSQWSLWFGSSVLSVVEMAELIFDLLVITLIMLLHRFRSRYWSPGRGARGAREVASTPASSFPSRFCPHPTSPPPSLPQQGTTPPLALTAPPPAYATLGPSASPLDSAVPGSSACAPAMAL
UniProt P63101: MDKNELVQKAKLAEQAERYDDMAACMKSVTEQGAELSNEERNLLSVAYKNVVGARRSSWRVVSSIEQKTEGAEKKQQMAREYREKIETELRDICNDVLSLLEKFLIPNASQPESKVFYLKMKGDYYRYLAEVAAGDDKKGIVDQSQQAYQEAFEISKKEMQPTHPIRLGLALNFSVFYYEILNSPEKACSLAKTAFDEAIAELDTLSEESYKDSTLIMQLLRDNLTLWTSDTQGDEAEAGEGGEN
UniProt P20029, residues 20-655: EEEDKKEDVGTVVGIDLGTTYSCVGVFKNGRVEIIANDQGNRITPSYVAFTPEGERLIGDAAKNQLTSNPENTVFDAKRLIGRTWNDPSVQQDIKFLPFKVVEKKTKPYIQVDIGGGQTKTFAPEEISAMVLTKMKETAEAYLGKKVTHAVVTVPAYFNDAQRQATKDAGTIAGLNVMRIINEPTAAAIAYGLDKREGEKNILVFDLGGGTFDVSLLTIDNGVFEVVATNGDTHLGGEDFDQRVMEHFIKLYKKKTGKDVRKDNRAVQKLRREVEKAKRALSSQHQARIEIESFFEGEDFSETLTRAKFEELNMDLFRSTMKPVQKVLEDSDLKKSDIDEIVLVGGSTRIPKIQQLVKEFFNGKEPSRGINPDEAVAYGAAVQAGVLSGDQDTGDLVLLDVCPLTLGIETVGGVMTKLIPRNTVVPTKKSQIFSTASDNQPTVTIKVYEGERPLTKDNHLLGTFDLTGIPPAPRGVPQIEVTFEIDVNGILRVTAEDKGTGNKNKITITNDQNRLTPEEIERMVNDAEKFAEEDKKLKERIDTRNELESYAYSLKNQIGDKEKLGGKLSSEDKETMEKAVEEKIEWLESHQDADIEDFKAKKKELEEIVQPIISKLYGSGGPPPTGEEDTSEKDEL
UniProt P01027, residues 25-1663: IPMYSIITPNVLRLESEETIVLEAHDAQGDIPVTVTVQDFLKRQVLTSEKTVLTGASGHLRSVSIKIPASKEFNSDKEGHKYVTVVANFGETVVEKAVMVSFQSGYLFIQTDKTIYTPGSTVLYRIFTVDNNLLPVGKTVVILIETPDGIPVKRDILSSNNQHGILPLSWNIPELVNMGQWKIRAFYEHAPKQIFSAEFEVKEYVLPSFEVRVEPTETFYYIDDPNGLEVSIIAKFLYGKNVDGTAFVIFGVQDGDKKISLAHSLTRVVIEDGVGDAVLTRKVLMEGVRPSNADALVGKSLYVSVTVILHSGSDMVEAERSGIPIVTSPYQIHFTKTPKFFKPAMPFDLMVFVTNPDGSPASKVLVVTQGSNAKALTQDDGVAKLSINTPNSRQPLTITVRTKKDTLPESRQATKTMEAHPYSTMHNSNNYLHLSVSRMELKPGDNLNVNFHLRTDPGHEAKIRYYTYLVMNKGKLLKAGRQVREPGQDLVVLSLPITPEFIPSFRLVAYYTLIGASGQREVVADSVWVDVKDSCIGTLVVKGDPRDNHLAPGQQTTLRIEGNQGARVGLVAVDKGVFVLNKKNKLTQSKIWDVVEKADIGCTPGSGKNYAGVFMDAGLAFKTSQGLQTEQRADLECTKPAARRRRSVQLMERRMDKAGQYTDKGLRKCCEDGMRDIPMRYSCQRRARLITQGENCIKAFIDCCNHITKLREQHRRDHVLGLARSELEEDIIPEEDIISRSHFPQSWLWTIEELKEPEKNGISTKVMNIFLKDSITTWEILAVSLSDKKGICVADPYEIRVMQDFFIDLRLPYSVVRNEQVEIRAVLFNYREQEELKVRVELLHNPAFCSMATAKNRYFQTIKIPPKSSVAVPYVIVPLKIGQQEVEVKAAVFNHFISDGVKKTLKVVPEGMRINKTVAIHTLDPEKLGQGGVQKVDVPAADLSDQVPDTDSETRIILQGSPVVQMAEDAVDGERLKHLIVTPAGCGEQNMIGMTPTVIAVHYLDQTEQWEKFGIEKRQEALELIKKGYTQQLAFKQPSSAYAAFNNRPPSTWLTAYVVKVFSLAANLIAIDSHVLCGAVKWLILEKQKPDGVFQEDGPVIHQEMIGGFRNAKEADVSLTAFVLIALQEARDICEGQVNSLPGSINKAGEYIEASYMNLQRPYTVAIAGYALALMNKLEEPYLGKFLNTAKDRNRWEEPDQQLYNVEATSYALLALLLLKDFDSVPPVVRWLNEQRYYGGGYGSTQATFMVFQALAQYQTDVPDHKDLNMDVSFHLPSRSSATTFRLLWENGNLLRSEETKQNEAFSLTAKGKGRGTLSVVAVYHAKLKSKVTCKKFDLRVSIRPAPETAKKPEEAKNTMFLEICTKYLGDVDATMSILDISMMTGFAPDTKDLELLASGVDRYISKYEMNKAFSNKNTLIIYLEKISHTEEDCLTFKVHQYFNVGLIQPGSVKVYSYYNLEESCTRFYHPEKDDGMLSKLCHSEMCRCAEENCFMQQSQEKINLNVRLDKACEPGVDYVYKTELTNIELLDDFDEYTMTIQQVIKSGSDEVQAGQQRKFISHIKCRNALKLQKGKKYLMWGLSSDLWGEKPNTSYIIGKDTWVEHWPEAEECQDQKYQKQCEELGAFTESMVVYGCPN
Isoform 2 of Small glutamine-rich tetratricopeptide repeat-containing protein alpha (Q8BJU0-2, form named): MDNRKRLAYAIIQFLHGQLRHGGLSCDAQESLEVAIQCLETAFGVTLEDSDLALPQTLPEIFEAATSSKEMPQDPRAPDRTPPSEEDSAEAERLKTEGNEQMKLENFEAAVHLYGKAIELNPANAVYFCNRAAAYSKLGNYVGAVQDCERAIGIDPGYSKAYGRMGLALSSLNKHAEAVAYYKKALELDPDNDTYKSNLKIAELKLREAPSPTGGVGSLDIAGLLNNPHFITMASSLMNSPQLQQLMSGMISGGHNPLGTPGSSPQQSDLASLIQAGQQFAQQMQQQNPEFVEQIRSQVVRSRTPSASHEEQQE
UniProt P68372: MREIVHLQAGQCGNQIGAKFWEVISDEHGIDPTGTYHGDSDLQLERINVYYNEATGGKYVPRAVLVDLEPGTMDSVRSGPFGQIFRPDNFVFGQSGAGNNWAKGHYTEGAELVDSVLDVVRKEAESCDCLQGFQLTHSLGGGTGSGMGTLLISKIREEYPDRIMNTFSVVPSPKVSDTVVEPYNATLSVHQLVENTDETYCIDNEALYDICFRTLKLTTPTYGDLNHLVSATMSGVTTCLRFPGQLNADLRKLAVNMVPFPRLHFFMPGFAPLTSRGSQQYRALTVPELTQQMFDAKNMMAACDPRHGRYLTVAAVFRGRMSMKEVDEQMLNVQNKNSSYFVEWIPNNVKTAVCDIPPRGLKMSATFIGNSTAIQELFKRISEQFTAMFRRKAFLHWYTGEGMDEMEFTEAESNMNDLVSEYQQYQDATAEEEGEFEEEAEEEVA

Biological target: epithelial sodium channel alpha subunit (α-ENaC) (mouse (endogenous in MIN6)) (UniProt Q61180)
Experiment: affinity purification with mass spectrometry; LC-MS/MS screen for α-ENaC binding proteins in MIN6 cells; how α-ENaC was isolated is not told

Substance	binding
14-3-3 protein zeta/delta (from UniProt P63101 1-245)	binds
78 kDa glucose-regulated protein (from UniProt P20029 20-655)	binds

Results, then the substance that gave them:

binding	Substance
binds	Complement C3 (from UniProt P01027 25-1663)
binds	Isoform 2 of Small glutamine-rich tetratricopeptide repeat-containing protein alpha (from UniProt Q8BJU0-2 1-314)
binds	Tubulin beta-4B chain (from UniProt P68372 1-445)
